About 13,000 (3.2%) of roughly 400,000 compounds were called active. The shares of active, inactive and inconclusive entries below differ from those in the screen. The call rests on the fitted dose curve; in most records, active means well fitted cell-killing curve with a large enough effect; inconclusive means small, poorly fitted or top-dose-only effect, or effect the other way; inactive means flat fitted curve, though single readings scatter. A potency beside an inconclusive call is a rough fit, not a confirmed value.
Experiment: qHTS assay for MDR1-selective chemotherapeutics: Primary screen using the drug-selected MDR subline cells KB-V1; further: nearly all actives have a fitted effect of over 60% in size
Details: KB-V1 MDR cells viability, CellTiter-Glo, 72 h; activity change, negative = cytotoxicity: at 46.1 µM (top of the series)
How it was run: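 Cytotoxicity toward P-gp-expressing KB-V1 cells was determined as loss of CellTiter-Glo luminescence after 72 h at 37 degrees C. Compounds were tested in quantitative HTS format across a concentration range, with curves fitted to normalized data.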
For `Cc1cc(C)cc(N2C(=O)NC(=O)/C(=C\c3cccn3-c3ccccc3)C2=O)c1`, the Potency was active: 18.4 µM. In the case of `CNc1cc(N2CCN(C)CC2)ccc1[N+](=O)[O-]`, the Potency was “inactive”. For `Cc1cc(C)cc(N2C(=O)NC(=O)/C(=C\c3cccn3-c3ccc(Cl)cc3)C2=O)c1`, the Potency was inconclusive: 16.4 µM [cytotoxic, single point]. In the case of `COC(=O)C1=C(c2ccc(OCc3ccccc3)cc2)C[C@@H]2CC[C@H]1N2C(=O)NCc1ccc(OC)c(OC)c1`, the Potency was “inactive”. For `CC[C@H](OC(C)=O)C(C[C@H](C)N(C)C)(c1ccccc1)c1ccccc1`, the Potency was inconclusive: 8.2 µM [cytotoxic, partial curve]. In the case of `CC1CCOC(=O)C=CC=CC(=O)OC2CC3OC4C5OC5(C)C(O)CC4(COC(=O)C1O)C2(C)C31CO1` (stereo unspecified), the Potency was active: 5.8 µM. In the case of `CC(C)CCNC(=O)c1c(N)n(CC2CCCO2)c2nc3ccccc3nc12` (stereo unspecified), the Potency was inconclusive: 23.1 µM [cytotoxic, single point]. For `N#CC1c2ccccc2-n2nncc2CN1C(=O)c1ccccc1F` (stereo unspecified), the Potency was “inactive”. For `Cc1nn(Cc2ccc(Cl)cc2Cl)c(Cl)c1C(=O)NC1CCCc2ccccc21` (stereo unspecified), the Potency was inconclusive: 5.8 µM [cytotoxic, partial curve]. With `Cc1cnn(C2CCN(C)CC2)c1N` the Potency was “inactive”. For `O=C(O)CCCc1ccc(N(CCCl)CCCl)cc1`, the Potency was “inactive”. For `C=CCn1c(O)c(C(C)=NCc2ccc3c(c2)OCO3)c(=O)[nH]c1=O`, the Potency was inconclusive: 18.4 µM [cytotoxic, single point]. For `O=[N+]([O-])c1ccc(N2CCNCC2)cc1NCc1ccco1`, the Potency was “inactive”. For `COc1ccc(C(C)=O)cc1CN1CC=C(c2ccccc2)CC1`, the Potency was inconclusive: 16.4 µM [cytotoxic, partial curve, poor fit]. With `CC(C)(C)N1Cc2ccccc2C1=N` the Potency was inconclusive: 0.651 µM [cytotoxic, full curve, poor fit]. With `O=c1[nH]c2ccccc2n1C1CCN(C(c2ccccc2)c2nnnn2-c2ccc3c(c2)OCCO3)CC1` (stereo unspecified) the Potency was active: 16.4 µM. In the case of `Cc1nc2ccccc2c(=O)n1-c1cccc(C(F)(F)F)c1`, the Potency was inconclusive: 3.66 µM [rising, partial curve, poor fit]. In the case of `Cc1c(NS(=O)(=O)c2ccccc2)ccc([N+](=O)[O-])c1Cl`, the Potency was inconclusive: 20.6 µM [cytotoxic, single point]. For `Nc1c(C(=O)NCCCc2ccccc2)c2nc3ccccc3nc2n1Cc1cccs1`, the Potency was active: 14.6 µM. In the case of `O=C(CCNS(=O)(=O)c1ccccc1)Nc1ccc(Cl)cc1C(=O)c1ccccc1`, the Potency was inconclusive: 3.66 µM [cytotoxic, full curve, poor fit]. With `Clc1ccc(C2N3CCCN23)c(Cl)c1` (stereo unspecified) the Potency was “inactive”. For `COc1cc(C2c3cc4c(cc3CC3COC(=O)C32)OCO4)cc(OC)c1O` (stereo unspecified), the Potency was inconclusive: 0.291 µM [cytotoxic, full curve, poor fit]. In the case of `COC(=O)NC(=C(Cl)Cl)P(=O)(c1ccccc1)c1ccccc1`, the Potency was inconclusive: 3.66 µM [cytotoxic, full curve, poor fit]. For `O=C(Nc1ccc(F)c([N+](=O)[O-])c1)N1C[C@H]2C[C@@H](C1)c1cccc(=O)n1C2`, the Potency was “inactive”. For `CC(C)c1onc(C(=O)N2CCC3(CC2)OCCO3)c1[N+](=O)[O-]`, the Potency was inconclusive: 3.26 µM [rising, full curve]. With `CC(=O)N1Cc2cnnn2-c2ccccc2C1C#N` (stereo unspecified) the Potency was “inactive”. For `COc1cc(Cn2c(N)c(C(=O)NCc3ccco3)c3nc4ccccc4nc32)cc(OC)c1OC`, the Potency was inconclusive: 13 µM [cytotoxic, single point]. For `O=C(c1ccccc1)c1ccccc1N=Cc1c(O)[nH]c(=O)[nH]c1=O`, the Potency was inconclusive: 14.6 µM [rising, partial curve]. For `Cn1c(O)c(C(=NCCN2CCCCC2)c2ccccc2Cl)c(=O)n(C)c1=O`, the Potency was inconclusive: 23.1 µM [cytotoxic, partial curve, poor fit]. In the case of `CC(=NNC(=S)N1CC2CCC(CC2)C1)c1nccs1`, the Potency was inconclusive: 2.06 µM [cytotoxic, partial curve, poor fit]. In the case of `O=C1NC(=O)C(=Cc2ccc(-c3ccc(Cl)cc3)o2)C(=O)N1`, the activity change, negative = cytotoxicity was inconclusive: -12.4%. For `COC(=O)C1=C(c2ccc(-c3ccccc3)c(F)c2)C[C@@H]2CC[C@H]1N2C(=O)NCCOc1ccccc1`, the Potency was “inactive”. With `Cc1cccc(NC(=O)C(C)N2CC=C(c3ccccc3)CC2)c1` (stereo unspecified) the Potency was inconclusive: 23.1 µM [cytotoxic, single point]. In the case of `C=CCN1CCc2cccc3c2[C@H]1Cc1ccc(O)c(O)c1-3`, the Potency was inconclusive: 29.1 µM [cytotoxic, single point]. For `CCn1cc(CN2CCCC(C(=O)c3cccc(C(F)(F)F)c3)C2)cn1` (stereo unspecified), the Potency was “inactive”. In the case of `CN1C(=O)C(=Cc2cccnc2)C(=O)N(C)C1=O`, the Potency was inconclusive: 29.1 µM [rising, single point]. With `CCC(C)n1c(O)c(C(c2ccccn2)c2c(O)n(C(C)CC)c(=S)[nH]c2=O)c(=O)[nH]c1=S` (stereo unspecified) the Potency was “inactive”. With `O=C(NCC1=C(c2ccc3ccccc3c2)C[C@@H]2CC[C@H]1N2Cc1ccco1)c1ccc([N+](=O)[O-])cc1` the Potency was inconclusive: 14.6 µM [cytotoxic, partial curve, poor fit]. For `COC1/C=C/C=C(\C)Cc2cc(O)c(Cl)c(c2)N(C)C(=O)CC(OC(=O)C(C)C)C2(C)OC2C(C)C2CC1(O)NC(=O)O2` (stereo unspecified), the Potency was active: 0.731 µM. For `CC1(C)CC[C@]2(C)CC[C@]3(C)C4C[C@@H]5OO[C@@]6(O5)C(CCCC6(C)C)[C@]4(C)CC[C@@]3(C)C2C1` (stereo partly specified), the Potency was “inactive”. For `CC(=O)Nc1nc(CCl)cs1`, the Potency was inconclusive: 16.4 µM [cytotoxic, partial curve, poor fit]. For `O=C1NC(=O)C(=Cc2ccc(-c3ccccc3[N+](=O)[O-])o2)C(=O)N1`, the Potency was “inactive”. In the case of `COc1cc(CC2(CCc3ccncc3)C(=O)NC(=O)NC2=O)cc(OC)c1OC`, the Potency was “inactive”. For `COc1cc(CN2CCCC(C(=O)c3sccc3C)C2)cc(Cl)c1O` (stereo unspecified), the Potency was inconclusive: 8.2 µM [cytotoxic, partial curve]. For `Cc1cccc(Cn2cccc(C(=O)Nc3cc(C)on3)c2=O)c1`, the Potency was “inactive”. With `C[C@]12CCC3C(CC[C@H]4C[C@@H](O)CC[C@]34C)C1CCC2=O` (stereo partly specified) the Potency was inconclusive: 20.6 µM [cytotoxic, partial curve]. With `CCC(=NCC1CCCO1)c1c(O)n(Cc2ccccc2)c(=O)[nH]c1=O` (stereo unspecified) the Potency was active: 4.11 µM. With `C[C@]12CCC3C(CC[C@H]4[C@H](O)[C@H](O)CC[C@]34C)C1CCC2=O` (stereo partly specified) the Potency was “inactive”. In the case of `COc1ccc(N2C(=O)/C(=C/c3cccs3)C(=O)NC2=S)cc1`, the Potency was inconclusive: 29.1 µM [cytotoxic, single point]. With `Cc1nc2ccccc2n1C1CCN(Cc2nnnn2CCc2ccccc2)CC1` the Potency was inconclusive: 16.4 µM [cytotoxic, single point]. For `CCCCn1c(O)c(C(C)=NCCCn2ccnc2)c(=O)[nH]c1=O`, the Potency was inconclusive: 23.1 µM [rising, single point]. For `O=C(Nc1cccc(Cl)c1)OC1CN2CCC1CC2` (stereo unspecified), the Potency was inconclusive: 23.1 µM [cytotoxic, single point]. For `c1ccc2sc(N3CCNCC3)nc2c1`, the Potency was inconclusive: 9.2 µM [cytotoxic, partial curve]. For `NC(Cc1ccc(Cl)cc1)c1csc(Nc2ncccn2)n1` (stereo unspecified), the Potency was inconclusive: 20.6 µM [cytotoxic, single point]. For `Cc1ccc(C(=O)COC(=O)Cc2ccccc2)cc1`, the Potency was inconclusive: 29.1 µM [cytotoxic, single point]. With `COc1ccc(C(c2nnnn2-c2ccc3c(c2)OCCO3)N2CCC3(CC2)C(=O)NCN3c2ccccc2)cc1` (stereo unspecified) the Potency was inconclusive: 29.1 µM [cytotoxic, single point]. In the case of `CC(=O)OC(C)(C)/C=C/C(=O)[C@](C)(O)[C@H]1[C@H](O)C[C@@]2(C)[C@@H]3CC=C4[C@H](C[C@H](O)C(=O)C4(C)C)[C@]3(C)C(=O)C[C@]12C`, the Potency was active: 8.2 µM. In the case of `COC(=O)C(O)(c1ccc(NC(=S)NC(=O)c2ccc(Cl)cc2Cl)c(C)c1)C(F)(F)F` (stereo unspecified), the Potency was inconclusive: 23.1 µM [cytotoxic, partial curve, poor fit]. With `O=C1C2C3CCC(O3)C2C(=O)N1c1cccc(F)c1` (stereo unspecified) the Potency was “inactive”. For `O=C1NCN(c2ccccc2)C12CCN(C(c1ccccc1OC(F)(F)F)c1nnnn1C1CCCC1)CC2` (stereo unspecified), the Potency was inconclusive: 18.4 µM [cytotoxic, partial curve]. With `O=C(Cn1ncc2ccsc2c1=O)N1CCC2(CC1)OCCO2` the Potency was inconclusive: 3.26 µM [cytotoxic, partial curve, poor fit]. With `CCOC(=O)C1(CCc2ccccc2)CCN(Cc2ccco2)CC1` the Potency was inconclusive: 7.31 µM [cytotoxic, partial curve]. In the case of `CC1SC2(CN3CCC2CC3)NC1=O` (stereo unspecified), the Potency was inconclusive: 29.1 µM [rising, single point]. With `O=C(COc1ccccc1)N1CCN(CC2CC=CCC2)CC1` (stereo unspecified) the Potency was “inactive”. In the case of `COCc1cc(C2SCC(=O)Nc3c2c(=O)[nH]n3C(C)C)ccc1OC` (stereo unspecified), the Potency was “inactive”. For `CCc1c(C)nc(N)nc1N1N=C1SCC(N)=O`, the Potency was “inactive”. In the case of `CCCOC(=O)c1c(N)n(Cc2cccs2)c2nc3ccccc3nc12`, the Potency was “inactive”. In the case of `N#CC1=C(N)Oc2c(c(=O)oc3ccccc23)C1c1ccncc1` (stereo unspecified), the Potency was “inactive”. In the case of `COc1ccccc1CCNC1CCCCCC1`, the Potency was inconclusive: 18.4 µM [cytotoxic, single point]. With `C=CCN1C(=O)NC(=O)/C(=C/c2cnc(SC)nc2)C1=O` the Potency was “inactive”. With `CC(C)CCOC(=O)c1c(N)n(CC2CCCO2)c2nc3ccccc3nc12` (stereo unspecified) the Potency was inconclusive: 20.6 µM [cytotoxic, single point].
On the % scale 0 is the no-effect control and ±100 the full control effect; potency means the concentration at half of the fitted maximal effect.
